Source: the supplement of paper PMC8728848
This is one part of the list.

Experiments:
Assay in all cases: glycan array binding signal (z-score within array); higher = stronger binding
Settings in all cases: glycan notation: IUPAC condensed, linker removed
Gal3S(b1-4)Glc = target: Gal3S(b1-4)Glc
Summary of the method: (§1)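 From the Consortium for Functional Glycomics database, 3228 arrays were curated, keeping only those whose protein sequence was available. Binding is given as a within-array Z-score averaged across arrays sharing a protein sequence and across linkers. Negative Z-scores can be read as non-binding.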

Gal3S(b1-4)Glc6S = target: Gal3S(b1-4)Glc6S
Summary of the method: as §1

Gal3S(b1-4)GlcNAc = target: Gal3S(b1-4)GlcNAc
Summary of the method: as §1

[1] = target: Gal3S(b1-4)[Fuc(a1-3)]Glc6S
Summary of the method: as §1

[2] = target: Gal3S(b1-4)[Fuc(a1-3)]GlcNAc
Summary of the method: as §1

[3] = target: Gal3S(b1-4)[Fuc(a1-3)]GlcNAc6S
Summary of the method: as §1

Gal3S4S(b1-4)GlcNAc = target: Gal3S4S(b1-4)GlcNAc
Summary of the method: as §1

Gal3S6S(b1-4)GlcNAc = target: Gal3S6S(b1-4)GlcNAc
Summary of the method: as §1

Gal3S6S(b1-4)GlcNAc6S = target: Gal3S6S(b1-4)GlcNAc6S
Summary of the method: as §1

Gal4S(b1-4)GlcNAc = target: Gal4S(b1-4)GlcNAc
Summary of the method: as §1

Gal4S6S(b1-4)GlcNAc = target: Gal4S6S(b1-4)GlcNAc
Summary of the method: as §1

Gal6P(b1-4)GlcNAc = target: Gal6P(b1-4)GlcNAc
Summary of the method: as §1

Gal6S(b1-3)GlcNAc = target: Gal6S(b1-3)GlcNAc
Summary of the method: as §1

Gal6S(b1-3)GlcNAc6S = target: Gal6S(b1-3)GlcNAc6S
Summary of the method: as §1

Gal6S(b1-4)Glc = target: Gal6S(b1-4)Glc
Summary of the method: as §1

Gal6S(b1-4)Glc6S = target: Gal6S(b1-4)Glc6S
Summary of the method: as §1

Gal6S(b1-4)GlcNAc = target: Gal6S(b1-4)GlcNAc
Summary of the method: as §1

Gal6S(b1-4)GlcNAc6S = target: Gal6S(b1-4)GlcNAc6S
Summary of the method: as §1

GalNAc(a1-3)Gal = target: GalNAc(a1-3)Gal
Summary of the method: as §1

GalNAc(a1-3)GalNAc = target: GalNAc(a1-3)GalNAc
Summary of the method: as §1

[4] = target: GalNAc(a1-3)GalNAc(a1-3)Gal(a1-4)Gal(b1-4)GlcNAc
Summary of the method: as §1

[5] = target: GalNAc(a1-3)GalNAc(b1-3)Gal(a1-4)Gal(b1-4)Glc
Summary of the method: as §1

GalNAc(b1-3)Gal = target: GalNAc(b1-3)Gal
Summary of the method: as §1

[6] = target: GalNAc(b1-3)Gal(a1-4)Gal(b1-4)GlcNAc
Summary of the method: as §1

[7] = target: GalNAc(b1-3)Gal(a1-4)Gal(b1-4)GlcNAc(b1-3)Gal(b1-4)Glc
Summary of the method: as §1

[8] = target: GalNAc(b1-3)Gal(a1-6)Gal(b1-4)Glc
Summary of the method: as §1

GalNAc(b1-3)GalNAc = target: GalNAc(b1-3)GalNAc
Summary of the method: as §1

GalNAc(b1-3)GlcNAc = target: GalNAc(b1-3)GlcNAc
Summary of the method: as §1

GalNAc(b1-4)Gal(b1-4)Glc = target: GalNAc(b1-4)Gal(b1-4)Glc
Summary of the method: as §1

GalNAc(b1-4)GlcNAc = target: GalNAc(b1-4)GlcNAc
Summary of the method: as §1

[9] = target: GalNAc(b1-4)GlcNAc(b1-2)Man
Summary of the method: as §1

[10] = target: GalNAc(b1-4)GlcNAc(b1-2)Man(a1-3)[GalNAc(b1-4)GlcNAc(b1-2)Man(a1-6)]Man(b1-4)GlcNAc(b1-4)GlcNAc
Summary of the method: as §1

[11] = target: GalNAc(b1-4)GlcNAc(b1-3)GalNAc(b1-4)GlcNAc
Summary of the method: as §1

GalNAc(b1-4)GlcNAc6S = target: GalNAc(b1-4)GlcNAc6S
Summary of the method: as §1

GalNAc(b1-6)GalNAc = target: GalNAc(b1-6)GalNAc
Summary of the method: as §1

GalNAc3S(b1-4)GlcNAc = target: GalNAc3S(b1-4)GlcNAc
Summary of the method: as §1

GalNAc3S(b1-4)GlcNAc3S = target: GalNAc3S(b1-4)GlcNAc3S
Summary of the method: as §1

B1: AntigenI/IIC123 (Streptococcus mutans), C9E3B4 (protein)
chain: MASMTGGQQMGRIHFHYFKLAVQPQVNKEIRNNNDINIDRTLVAKQSVVKFQLKTADLPAGRDETTSFVLVDPLPSGYQFNPEATKAASPGFDVTYDNATNTVTFKATAATLATFNADLTKSVATIYPTVVGQVLNDGATYKNNFTLTVNDAYGIKSNVVRVTTPGKPNDPDNPNNNYIKPTKVNKNENGVVIDGKTVLAGSTNYYELTWDLDQYKNDRSSADTIQKGFYYVDDYPEEALELRQDLVKITDANGNEVTGVSVDNYTNLEAAPQEIRDVLSKAGIRPKGAFQIFRADNPREFYDTYVKTGIDLKIVSPMVVKKQMGQTGGSYENQAYQIDFGNGYASNIIINNVPKINPKKDVTLTLDPADTNNVDGQTIPLNTVFNYRLIGGIIPADHSEELFEYNFYDDYDQTGDHYTGQYKVFAKVDITFKDGSIIKSGAELTQYTTAEVDTAKGAITIKFKEAFLRSVSIDSAFQAESYIQMKRIAVGTFENTYINTVNGVTYSSLEHHHHHH
glycan array binding signal (z-score) (Gal3S(b1-4)Glc): -0.499
glycan array binding signal (z-score) (Gal3S(b1-4)Glc6S): 0.433
glycan array binding signal (z-score) (Gal3S(b1-4)GlcNAc): -0.346
glycan array binding signal (z-score) [1]: 2.84
glycan array binding signal (z-score) [2]: 0.749
glycan array binding signal (z-score) [3]: -0.92
glycan array binding signal (z-score) (Gal3S4S(b1-4)GlcNAc): -0.756
glycan array binding signal (z-score) (Gal3S6S(b1-4)GlcNAc): -0.745
glycan array binding signal (z-score) (Gal3S6S(b1-4)GlcNAc6S): -0.223
glycan array binding signal (z-score) (Gal4S(b1-4)GlcNAc): 1.04
glycan array binding signal (z-score) (Gal4S6S(b1-4)GlcNAc): -0.71
glycan array binding signal (z-score) (Gal6P(b1-4)GlcNAc): -0.46
glycan array binding signal (z-score) (Gal6S(b1-3)GlcNAc): 2.1
glycan array binding signal (z-score) (Gal6S(b1-3)GlcNAc6S): -0.842
glycan array binding signal (z-score) (Gal6S(b1-4)Glc): -0.033
glycan array binding signal (z-score) (Gal6S(b1-4)Glc6S): 0.758
glycan array binding signal (z-score) (Gal6S(b1-4)GlcNAc): -0.348
glycan array binding signal (z-score) (Gal6S(b1-4)GlcNAc6S): 0.272
glycan array binding signal (z-score) (GalNAc(a1-3)Gal): 0.205
glycan array binding signal (z-score) (GalNAc(a1-3)GalNAc): -0.53
glycan array binding signal (z-score) [4]: -0.785
glycan array binding signal (z-score) [5]: -0.246
glycan array binding signal (z-score) (GalNAc(b1-3)Gal): -0.216
glycan array binding signal (z-score) [6]: 0.6
glycan array binding signal (z-score) [7]: -0.71
glycan array binding signal (z-score) [8]: -0.98
glycan array binding signal (z-score) (GalNAc(b1-3)GalNAc): -0.97
glycan array binding signal (z-score) (GalNAc(b1-3)GlcNAc): -0.602
glycan array binding signal (z-score) (GalNAc(b1-4)Gal(b1-4)Glc): 0.156
glycan array binding signal (z-score) (GalNAc(b1-4)GlcNAc): 1.11
glycan array binding signal (z-score) [9]: 1.82
glycan array binding signal (z-score) [10]: 0.62
glycan array binding signal (z-score) [11]: 1.09
glycan array binding signal (z-score) (GalNAc(b1-4)GlcNAc6S): 0.659
glycan array binding signal (z-score) (GalNAc(b1-6)GalNAc): -0.87
glycan array binding signal (z-score) (GalNAc3S(b1-4)GlcNAc): -1.45
glycan array binding signal (z-score) (GalNAc3S(b1-4)GlcNAc3S): -0.623
